Measurements from patent publication US20110118199A1, “USE OF CNS PENETRATING ANTICANCER COMPOUNDS FOR THE TREATMENT OF PROTOZOAL DISEASES” (priority 2006, published 2011).
For at least one compound, name, drawing or mass did not settle the structure. Marks after values point to notes of the source that are not given here.

Tested on: Trypanosoma brucei rhodesiense (STIB 900 clone)
Experiment: Sleeping sickness acute mouse model, T. b. rhodesiense STIB900
Format: in vivo, mice (NMRI)
Settings: for Cured/Infected: determined on day 18
Procedure: Sleeping Sickness: Acute Model—Trypanosome b. rhodesiense STIB900 Parasite and Animal Strains Trypanosoma brucei rhodesiense STIB900 is used for this model. Female mice (NMRI), weighing 20-25 g, are maintained at 22° C. and 70% relative humidity.
Standard drugs as positive controls are Melarsoprol (Arsobal®, Specia, France) and Diminazene aceturate (Berenil®, Hoechst, Germany). Stock solutions of all test items were prepared in DMSO.

Compound | Cured/Infected (4 × 20 mg/kg p.o.) | Cured/Infected (4 × 50 mg/kg p.o.) | cure of mice infected with Trypanosoma brucei rhodesiense (daily administration for four consecutive days)
CN(C)/N=N/c1[nH]cnc1C(N)=O [Dacarbazine] | 0/4* | 0/4* | –
Cn1nnc2c(C(N)=O)ncn2c1=O [Temozolomide] | – | – | can completely cure mice
